Test: Crossreactions with the INT-formazan measurement system, incubated without cells
Conditions: beclometasone 10^−6 mol/l, 1,8-cineol 10^−5 mol/l, INTV 0.5 μg/ml

Compound | crossreactions with the INT-formazan measurement method
CC12CCC(CC1)C(C)(C)O2 [1,8-cineol, 1,3,3-trimethyl-2-oxabicyclo-[2.2.2]-octane] | could therefore be excluded
C[C@H]1C[C@H]2[C@@H]3CCC4=CC(=O)C=C[C@]4(C)[C@@]3(Cl)[C@@H](O)C[C@]2(C)[C@@]1(O)C(=O)CO [beclometasone] | could therefore be excluded

— patent US11123323B2, “Monoterpenes for treating respiratory disorders, in particular bronchopulmonary disorders” (Maria Clemetine Martin Klosterfrau Vertriebsqesellschaft MBH, priority 2008, dated 2021)
